Results taken from US20240318145A1, “STRUCTURALLY COMPLETE ORGANOIDS” (Children's Hospital Medical Center, priority 2021, published 2024).
At least one compound was matched to its structure with a doubt left.

Tested on: lateral plate mesoderm (LPM)
Assay: Directed differentiation of hPSC-derived lateral plate mesoderm into splanchnic mesenchyme
Assay type: cell-based, human
Settings: LPM treated with RA; FIG. 1B-C

CC1=C(/C=C/C(C)=C/C=C/C(C)=C/C(=O)O)C(C)(C)CCC1 [retinoic acid]
marker expression after induction of SM fate: loss of cardiac markers and an increase in expression of SM markers like FOXF1
